From paper PMC8482512, “Aim32 is a dual-localized 2Fe-2S mitochondrial protein that functions in redox quality control” (The Journal of Biological Chemistry, 2021)
No constants are given. Whether binding was seen depends on the method and setting. Binding seen in cells or lysates may run through a third protein. Some entries that bind do so weakly or less than the wild type. Where a sequence is shown, tags or fusion partners need not be part of it.

Molecular target: T1, Erv1 with a C-terminal histidine tag (Erv1-His) (S. cerevisiae) (UniProt P27882)
T1 sequence: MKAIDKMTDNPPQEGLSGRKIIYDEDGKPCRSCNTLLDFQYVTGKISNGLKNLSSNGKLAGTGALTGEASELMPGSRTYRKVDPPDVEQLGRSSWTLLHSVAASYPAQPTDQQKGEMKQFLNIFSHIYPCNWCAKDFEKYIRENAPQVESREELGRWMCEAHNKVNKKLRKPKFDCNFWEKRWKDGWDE
Assay: pull-down; mitochondria of His-tagged strains solubilized in 1% digitonin, 500 μg lysate incubated with Ni2+-agarose beads, washed, eluted, immunoblot; untagged WT strain as control

binding: binds
B1: Mia40 (protein, UniProt P36046 32-403)
chain: MASSPQFGRNSNQEKTAGFIMGILSMAGALYFIAPNRKPLFASRKVESDKTAEEELSSGGEQSPENEDDNNSKSDENGDDNDSKNDETEAGPQLGGDKIGASKVAEDGELVVLAEEDNKSSEDKDTDESKVSTKDDEQSNEDNATANNQKDENISSENSEENTSDKTLDNNAGSSEKKDPEHSDDEKSQQGQSDDKTTTEDNNGEEESSKKTVSDSENSAKQSESSDEEKEELRKQEEKQMGPTEEEVQHEGAYNPDTGEINWDCPCLGGMAHGPCGEEFKSAFSCFVYSEAEPKGIDCVEKFQHMQDCFRKYPEHYAEQLKETSDDEEPQDKVKVNTIESAPNVSSAKENAAKKAEQSDVKKEPLNEESKP
